US20230050972A1
Results are given in words; binding and its absence hold for the method and conditions named. For part of these data: Binding calls can cover weak binding; strength is not graded here.

B1: A11B1_16E10 (antibody, V domains shown)
VH: QSLEESGGDLVKPGASLTLTCRVSGFSFSSSYYMCWVRQAPGKGLEWIACIGTTRGSTYYATWAKGRFTISKISSTTVTLQMTSLTDADTATYFCARDATGYRINTIGLYFNLWGPGTLVTVSS
VL: AFELTQTPSSVEAAVGGTPTIKCQASQTIYSYLSWYQQKPGQPPKLLIYEASKLASGVPSRFSGSGSGTDYTLTISDLECADAATYYCQSYHGTASTEYNTFGGGTEVVVRG
B2: 1994_01_C07 (antibody, V domains shown)
VH: QVQLVQSGAEVKKPGASVKVSCKASGYTFTSYGISWVRQAPGQGLEWMGWISAYNGNTNYAQKLQGRVTMTTDTSTSTAYMELRSLRSDDTAAYYCARVTGITGTTIDPWGQGTMVTVSS
VL: DIQMTQSPSSLSASVGDRVTITCRASQSISSYLNWYQQKPGKAPKLLIYDASSLESGVPSRFSGSGSGTEFTLTISSLQPDDFAVYYCQQYNNWPQTFGQGTKVEIK
B3: 79E3E3 (antibody, V domains shown)
VH: QIQLVQSGPEVKKPGESVKISCKASGYTFTDYAMNWVKQAPGNGLKWMGWINTQTGKPTYADDFKQRFVFSLETSARTTYLQINNLNIEDTATYFCTRLGTGNTKGFAYWGQGTLVTVSS
VL: DILINQSPASLTVSAGERVTMSCKSSQSLLYSENNQDYLAWYQQKPGQFPKLLIYGASNRHTGVPDRFTGSGSGTDFTLTISSVQAEDLADYYCEQTYRYPFTFGSGTKLEIK
B4: 9-G05 (antibody, V domains shown)
VH: EVQLQQSGPELVKPGASVKIPCKASGYTFPDYNMDWVKQSHGKSLEWIGYINPDNGGTIYNQKFKGKATLTVDKSSSTAYMELRSLTSEDTAVYYCARLDSSGYGYYAMDYWGQGTSVTVSS
VL: DIVLTQSPASLAVSLGQRATISCRASESVDNYGISFMHWYQQKPGQPPKLLIYRASNLDSEIPARFSGSGSRTDFTLTIDPVETDDVATYYCQQSYKDPRTFGGGTKLEIK

These binders were tested against α11β1 Headpiece (assay: SPR).

| Binder | binding |
| --- | --- |
| B1 | no binding |
| B2 | no binding |

Each binder was assayed against α11β1 Headpiece (assay: SPR, single-cycle injections of 33, 100 and 300 nM over the a11b1 Headpiece).

| Binder | binding |
| --- | --- |
| B3 | binds |
| B4 | binds |
| B1 | no binding (tested: 300 nM) |
| B2 | no binding (tested: 300 nM) |
